Data as given in patent publication US10500278B2, “Genospecific radiosensitization” (THE CLEVELAND CLINIC FOUNDATION, priority 2014, dated 2019).
“Also recorded” adds a separate entry of the source. For at least one compound, name, drawing or mass did not settle the structure.

Columns and labels:
[1] = tested on: Cell line HCC15, which contains a mutation in KEAP1 (G364C); assay: Radiation sensitivity of cell line HCC15 exposed to inhibitor; assay type: cell-based; conditions: HCC15 cells
NRF2 = NRF2 levels (gel image) in cell line HCC15 exposed to increasing doses of inhibitor; assay type: cell-based; conditions: HCC15 cells, KEAP1 G364C mutation, compared with PI3K inhibitor LY 294002

In the case of `CO[C@H]1C[C@@H]2CC[C@@H](C)[C@@](O)(O2)C(=O)C(=O)N2CCCC[C@H]2C(=O)O[C@H]([C@H](C)C[C@@H]2CC[C@@H](O)[C@H](OC)C2)CC(=O)[C@H](C)/C=C(\C)[C@@H](O)[C@@H](OC)C(=O)[C@H](C)C[C@H](C)/C=C/C=C/C=C/1C` [rapamycin], the radiation sensitivity [1] is reported as “effected radiation sensitivity; also recorded: effects therapeutic sensitivity” and the “reduction in NRF2 levels” value (NRF2) is reported as “more potent reduction in NRF2 levels; also recorded: degrades NRF2”.
